Source: publication PMC7094869
Results are given in words; binding and its absence hold for the method and conditions named. In cells and extracts the contact can be indirect. Some entries that bind do so weakly or less than the wild type. For some of these results: Tags and fused reporters may be left off the sequences shown.

T1: Klp10A (Drosophila melanogaster (endogenous in testes)) (UniProt Q960Z0)
T1 sequence: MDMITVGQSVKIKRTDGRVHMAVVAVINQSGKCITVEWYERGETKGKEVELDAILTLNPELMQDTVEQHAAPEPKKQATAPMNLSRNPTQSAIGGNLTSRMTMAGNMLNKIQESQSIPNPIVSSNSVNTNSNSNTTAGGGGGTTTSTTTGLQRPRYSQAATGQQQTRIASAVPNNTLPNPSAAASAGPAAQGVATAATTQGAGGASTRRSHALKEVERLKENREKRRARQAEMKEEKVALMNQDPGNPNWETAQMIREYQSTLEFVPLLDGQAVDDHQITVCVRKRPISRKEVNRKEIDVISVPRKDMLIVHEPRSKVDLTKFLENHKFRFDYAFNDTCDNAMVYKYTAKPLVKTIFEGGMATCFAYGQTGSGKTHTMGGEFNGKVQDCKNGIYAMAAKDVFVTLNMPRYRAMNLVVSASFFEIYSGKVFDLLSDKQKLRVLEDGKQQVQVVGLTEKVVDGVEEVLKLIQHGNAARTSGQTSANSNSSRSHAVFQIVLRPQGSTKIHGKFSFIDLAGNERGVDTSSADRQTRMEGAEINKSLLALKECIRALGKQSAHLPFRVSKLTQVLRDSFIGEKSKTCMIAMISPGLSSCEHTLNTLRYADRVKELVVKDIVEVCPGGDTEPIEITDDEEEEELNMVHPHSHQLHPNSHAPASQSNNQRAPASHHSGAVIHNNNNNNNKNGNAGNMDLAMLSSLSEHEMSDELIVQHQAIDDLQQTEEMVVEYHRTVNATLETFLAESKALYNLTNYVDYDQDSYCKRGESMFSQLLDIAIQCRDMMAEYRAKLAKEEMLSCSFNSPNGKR

T2: GFP-Aub (Drosophila melanogaster) (UniProt O76922)
T2 sequence: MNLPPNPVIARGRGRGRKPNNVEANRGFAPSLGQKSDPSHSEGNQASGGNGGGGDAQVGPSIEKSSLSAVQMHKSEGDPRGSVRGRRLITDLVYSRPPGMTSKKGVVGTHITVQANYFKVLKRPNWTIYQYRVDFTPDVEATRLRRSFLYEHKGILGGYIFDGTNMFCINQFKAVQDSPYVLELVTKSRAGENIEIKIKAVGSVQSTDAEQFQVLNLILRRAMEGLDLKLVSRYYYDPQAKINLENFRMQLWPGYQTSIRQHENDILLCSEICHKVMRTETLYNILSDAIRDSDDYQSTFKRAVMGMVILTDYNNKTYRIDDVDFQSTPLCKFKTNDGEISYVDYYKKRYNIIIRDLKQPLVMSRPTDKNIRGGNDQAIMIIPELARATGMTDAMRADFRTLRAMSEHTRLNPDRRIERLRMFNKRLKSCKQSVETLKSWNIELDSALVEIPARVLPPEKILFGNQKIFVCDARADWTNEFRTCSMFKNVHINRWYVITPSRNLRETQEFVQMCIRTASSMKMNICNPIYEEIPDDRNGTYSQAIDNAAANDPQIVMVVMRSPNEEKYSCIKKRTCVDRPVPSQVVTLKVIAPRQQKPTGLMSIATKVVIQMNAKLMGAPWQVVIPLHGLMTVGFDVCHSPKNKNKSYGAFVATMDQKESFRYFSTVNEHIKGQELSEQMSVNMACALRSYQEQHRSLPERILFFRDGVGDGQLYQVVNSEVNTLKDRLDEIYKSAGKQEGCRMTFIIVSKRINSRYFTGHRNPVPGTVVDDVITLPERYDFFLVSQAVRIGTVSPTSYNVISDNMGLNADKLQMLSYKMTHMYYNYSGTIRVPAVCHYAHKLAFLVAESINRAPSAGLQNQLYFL

T3: Vasa (Drosophila melanogaster (endogenous in testes)) (UniProt P09052)
T3 sequence: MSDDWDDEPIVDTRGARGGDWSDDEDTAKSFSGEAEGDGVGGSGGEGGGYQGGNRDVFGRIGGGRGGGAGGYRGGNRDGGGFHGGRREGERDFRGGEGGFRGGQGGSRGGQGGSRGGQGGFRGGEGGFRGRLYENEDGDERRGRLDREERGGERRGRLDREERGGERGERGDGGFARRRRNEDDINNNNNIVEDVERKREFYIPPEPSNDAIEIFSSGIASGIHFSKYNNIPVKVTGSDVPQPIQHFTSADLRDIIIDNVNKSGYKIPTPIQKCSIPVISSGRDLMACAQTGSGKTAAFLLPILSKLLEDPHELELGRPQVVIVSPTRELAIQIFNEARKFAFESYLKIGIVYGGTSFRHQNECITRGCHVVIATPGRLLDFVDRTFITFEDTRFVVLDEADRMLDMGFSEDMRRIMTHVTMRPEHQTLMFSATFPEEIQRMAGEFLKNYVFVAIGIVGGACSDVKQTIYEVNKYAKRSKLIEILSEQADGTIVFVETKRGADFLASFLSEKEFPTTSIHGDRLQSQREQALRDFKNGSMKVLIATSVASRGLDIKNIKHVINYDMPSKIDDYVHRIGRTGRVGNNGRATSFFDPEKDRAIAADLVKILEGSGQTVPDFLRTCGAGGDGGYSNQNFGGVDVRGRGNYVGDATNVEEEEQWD


Experiments:
[1] = target: T1, Klp10A (Drosophila melanogaster (endogenous in testes)); test: co-IP; anti-Klp10A immunoprecipitation; extract of Dpp-expressing (SG tumor) testes (nos-gal4>UAS-dpp); western blot
[2] = target: T2, GFP-Aub (Drosophila melanogaster); test: co-IP; GFP-Trap magnetic beads on GFP-Aub; extract of Upd-expressing testes (nos-gal4>UAS-upd UAS-gfp-aub, control nos-gal4>UAS-upd UAS-gfp); western blot
[3] = target: T3, Vasa (Drosophila melanogaster (endogenous in testes)); test: co-IP; Vasa precipitated, Klp10A detected; extract of Dpp-expressing (SG tumor) testes (nos-gal4>UAS-dpp); western blot

| binding [1] | binding [2] | binding [3] | Binder |
| --- | --- | --- | --- |
| binds | – | – | Piwi (protein, UniProt Q9VKM1 1-843) MADDQGRGRRRPLNEDDSSTSRGSGDGPRVKVFRGSSSGDPRADPRIEASRERRALEEAPRREGGPTERKPWGDQYDYLNTRPAELVSKKGTDGVPVMLQTNFFRLKTKPEWRIVHYHVEFEPSIENPRVRMGVLSNHANLLGSGYLFDGLQLFTTRKFEQEITVLSGKSKLDIEYKISIKFVGFISCAEPRFLQVLNLILRRSMKGLNLELVGRNLFDPRAKIEIREFKMELWPGYETSIRQHEKDILLGTEITHKVMRTETIYDIMRRCSHNPARHQDEVRVNVLDLIVLTDYNNRTYRINDVDFGQTPKSTFSCKGRDISFVEYYLTKYNIRIRDHNQPLLISKNRDKALKTNASELVVLIPELCRVTGLNAEMRSNFQLMRAMSSYTRMNPKQRTDRLRAFNHRLQNTPESVKVLRDWNMELDKNVTEVQGRIIGQQNIVFHNGKVPAGENADWQRHFRDQRMLTTPSDGLDRWAVIAPQRNSHELRTLLDSLYRAASGMGLRIRSPQEFIIYDDRTGTYVRAMDDCVRSDPKLILCLVPNDNAERYSSIKKRGYVDRAVPTQVVTLKTTKNRSLMSIATKIAIQLNCKLGYTPWMIELPLSGLMTIGFDIAKSTRDRKRAYGALIASMDLQQNSTYFSTVTECSAFDVLANTLWPMIAKALRQYQHEHRKLPSRIVFYRDGVSSGSLKQLFEFEVKDIIEKLKTEYARVQLSPPQLAYIVVTRSMNTRFFLNGQNPPPGTIVDDVITLPERYDFYLVSQQVRQGTVSPTSYNVLYSSMGLSPEKMQKLTYKMCHLYYNWSGTTRVPAVCQYAKKLATLVGTNLHSIPQNALEKKFYYL |
| binds | – | – | Argonaute 3 (protein, UniProt Q7PLK0 1-867) MSGRGNLLSLFNKNAGNMGKSISSKDHEIDSGLDFNNSESSGERLLSSHNIETDLITTLQHVNISVGRGRARLIDTLKTDDHTSNQFITSESKENITKKTKGPESEAIASENGLFFPDLIYGSKGSSVNIYCNYLKLTTDESKGVFNYEVRFFPPIDSVHLRIKYLNDHKDKLGGTKTFDGNTLYLPILLPNKMTVFISKAEDVELQIRILYKKKEEMRNCTQLYNILFDRVMKVLNYVKFDRKQFDPSRPKIIPLAKLEVWPGYVTAVDEYKGGLMLCCDVSHRILCQKTVLEMLVDLYQQNVEHYQESARKMLVGNIVLTRYNNRTYKINDICFDQNPTCQFEIKTGCTSYVEYYKQYHNINIKDVNQPLIYSIKKSRGIPAERENLQFCLIPELCYLTGLRDEVRSDNKLMREIATFTRVSPNQRQMALNKFYENVSNTPAAQEILNSWGLSLTNNSNKISGRQMDIEQIYFSKISVSAGRSAEFSKHAVTNEMLKVVHLSKWIIIHLRNYRQAATSLLDNMKQACESLGMNISNPTMISLDHDRIDAYIQALRRNITMNTQMVVCICHNRRDDRYAAIKKICCSEIPIPSQVINAKTLQNDLKIRSVVQKIVLQMNCKLGGSLWTVKIPFKNVMICGIDSYHDPSNRGNSVAAFVASINSSYSQWYSKAVVQTKREEIVNGLSASFEIALKMYRKRNGKLPTNIIIYRDGIGDGQLYTCLNYEIPQFEMVCGNRIKISYIVVQKRINTRIFSGSGIHLENPLPGTVVDQHITKSNMYDFFLVSQLVRQGTVTPTHYVVLRDDCNYGPDIIQKLSYKLCFLYYNWAGTVRIPACCMYAHKLAYLIGQSIQRDVAEALSEKLFYL |
| – | binds | binds | Klp10A (protein, UniProt Q960Z0 1-805) MDMITVGQSVKIKRTDGRVHMAVVAVINQSGKCITVEWYERGETKGKEVELDAILTLNPELMQDTVEQHAAPEPKKQATAPMNLSRNPTQSAIGGNLTSRMTMAGNMLNKIQESQSIPNPIVSSNSVNTNSNSNTTAGGGGGTTTSTTTGLQRPRYSQAATGQQQTRIASAVPNNTLPNPSAAASAGPAAQGVATAATTQGAGGASTRRSHALKEVERLKENREKRRARQAEMKEEKVALMNQDPGNPNWETAQMIREYQSTLEFVPLLDGQAVDDHQITVCVRKRPISRKEVNRKEIDVISVPRKDMLIVHEPRSKVDLTKFLENHKFRFDYAFNDTCDNAMVYKYTAKPLVKTIFEGGMATCFAYGQTGSGKTHTMGGEFNGKVQDCKNGIYAMAAKDVFVTLNMPRYRAMNLVVSASFFEIYSGKVFDLLSDKQKLRVLEDGKQQVQVVGLTEKVVDGVEEVLKLIQHGNAARTSGQTSANSNSSRSHAVFQIVLRPQGSTKIHGKFSFIDLAGNERGVDTSSADRQTRMEGAEINKSLLALKECIRALGKQSAHLPFRVSKLTQVLRDSFIGEKSKTCMIAMISPGLSSCEHTLNTLRYADRVKELVVKDIVEVCPGGDTEPIEITDDEEEEELNMVHPHSHQLHPNSHAPASQSNNQRAPASHHSGAVIHNNNNNNNKNGNAGNMDLAMLSSLSEHEMSDELIVQHQAIDDLQQTEEMVVEYHRTVNATLETFLAESKALYNLTNYVDYDQDSYCKRGESMFSQLLDIAIQCRDMMAEYRAKLAKEEMLSCSFNSPNGKR |
